Measured values as given in the supplement of paper PMC10689618.
The other results are listed elsewhere or left out. Single values are uncertain, as repeats are few or missing.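 Primary human fetal astrocytes engulfed labelled rat cortical synaptosomes, measured as a red/green ratio corrected for calcein live-cell signal and scaled to the plate median. Toxicity meant calcein falling over 30%; decreased phagocytosis meant below 70% of median above 5 µM.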

Experiments:
Human fetal astrocytes [1] = assay: loss of total cells relative to no-compound high-control median (toxicity); higher = more toxic (fewer cells); conditions: 24 h
Human fetal astrocytes [2] = assay: synaptosome phagocytosis (pHrodo/calcein intensity ratio) relative to plate median of data wells; higher = more phagocytosis; conditions: 24 h

SMILES	loss of total cells (Human fetal astrocytes [1]; 1.39 µM) [%]	loss of total cells (Human fetal astrocytes [1]; 2.78 µM) [%]	loss of total cells (Human fetal astrocytes [1]; 5.56 µM) [%]	loss of total cells (Human fetal astrocytes [1]; 11.11 µM) [%]	loss of total cells (Human fetal astrocytes [1]; 22.22 µM) [%]	synaptosome phagocytosis (Human fetal astrocytes [2]; 1.39 µM) [%]	synaptosome phagocytosis (Human fetal astrocytes [2]; 2.78 µM) [%]	synaptosome phagocytosis (Human fetal astrocytes [2]; 5.56 µM) [%]	synaptosome phagocytosis (Human fetal astrocytes [2]; 11.11 µM) [%]	synaptosome phagocytosis (Human fetal astrocytes [2]; 22.22 µM) [%]
CC1=C(/C=C/C(C)=C/C=C/C(C)=C/C=C/C=C(C)/C=C/C=C(C)/C=C/C2=C(C)C(=O)CCC2(C)C)C(C)(C)CCC1=O [CANTHAXANTHIN (euglenanone)]	-4.9	-0.4	9.5	12.8	11.1	80.3	75	118	122	103
CCOC(=O)[C@H](CCc1ccccc1)N[C@@H](C)C(=O)N1Cc2ccccc2C[C@H]1C(=O)O	-25	-26.2	1.2	-1	-7.2	109	98	100	95.1	89.8
NCC(O)CC(=O)O (stereo not given)	9.7	6.9	1.4	2.1	25	94.7	93.6	82.1	90.3	64.4
COC(=O)[C@H]1[C@H]2C[C@H]3c4[nH]c5cc(OC)ccc5c4CCN3C[C@H]2C[C@@H](OC(=O)c2cc(OC)c(OC)c(OC)c2)[C@@H]1OC	6.9	17	15.2	-2.9	11.4	145	98.1	118	76.2	80.4
NCCC(=O)c1ccccc1N	-28.7	2.5	1.5	12.2	0	70.7	79.9	103	158	100
CC=C(C)C(=O)OC1C(OC(C)=O)C2(CO)C(O)CC3(C)C(=CCC4C5(C)CCC(OC6OC(C(=O)O)C(OC7OC(CO)C(O)C(O)C7O)C(O)C6OC6OC(CO)C(O)C(O)C6O)C(C)(CO)C5CCC43C)C2CC1(C)C (stereo not drawn) [beta-ESCIN]	7.6	1.1	2.9	2.1	17.4	88.9	144	78	96.8	48.7
COc1ccc([C@@H]2Sc3ccccc3N(CCN(C)C)C(=O)[C@@H]2OC(C)=O)cc1	-4	11.3	-13.7	29	-11.5	121	70.4	67.3	110	70.9
Cc1cc(O)c(C=O)c2c1C(=O)Oc1c(COC(=O)/C=C/C(=O)O)c(O)c(C(=O)O)c(C)c1O2	-23.6	-3.3	37.4	45.2	10	118	109	118	132	127
CC[C@H]1OC(=O)[C@H](C)[C@@H](O[C@H]2C[C@@](C)(OC)[C@@H](O)[C@H](C)O2)[C@H](C)[C@@H](O[C@@H]2O[C@H](C)C[C@H](N(C)C)[C@H]2O)[C@](C)(O)C[C@@H](C)C(=O)[C@H](C)[C@@H](O)[C@]1(C)O	-26.6	-20.4	2.1	-14.1	5.1	98.3	96.5	117	84.4	114
Cc1cc(=O)[nH]c(=S)[nH]1	34.7	11.2	18.1	8.4	-10.6	79.4	110	145	128	110
COC1=C(O)C(=O)c2c(cc3oc(C(C)=O)c(O)c3c2O)C1=O	9	-2.5	10.3	17.6	-8.1	116	115	93.9	99	110
CC(=O)OC/C=C(\C)CC/C=C(\C)CC/C=C(\C)CC/C=C(\C)CC/C=C(\C)CC/C=C(\C)CC/C=C(\C)CC/C=C(\C)CCC=C(C)C	5.7	7.6	8.8	10.1	6.7	120	102	138	120	132
CCCCc1nc(Cl)c(CO)n1Cc1ccc(-c2ccccc2-c2nnn[nH]2)cc1	-15.8	-5.8	7.5	-14.1	0	91.5	112	96.6	124	89.6
CC[C@H]1OC(=O)[C@H](C)[C@@H](O[C@H]2C[C@@](C)(OC)[C@@H](O)[C@H](C)O2)[C@H](C)[C@@H](O[C@@H]2O[C@H](C)C[C@H](N(C)C)[C@H]2O)[C@](C)(O)C[C@@H](C)CN(C)[C@H](C)[C@@H](O)[C@]1(C)O	-33.9	-40.5	6.2	3	6.5	83.1	91.8	78.1	90.5	130
Nc1ncnc2c1ncn2[C@@H]1O[C@H](CO)[C@@H](O)[C@@H]1O	-2.1	-21.4	-28.6	-11.2	-7	90.3	132	114	109	87.1
COc1cc(-c2coc3cc(O[C@@H]4O[C@H](CO)[C@@H](O)[C@H](O)[C@H]4O)c(OC)c(O)c3c2=O)cc(O)c1OC	36.6	28.6	-16	49	18.1	136	127	104	120	137
C[C@H](CCC(=O)O)[C@H]1CC[C@H]2[C@@H]3CC[C@@H]4C[C@H](O)CC[C@]4(C)[C@H]3CC[C@]12C [Lithocholic acid 5.beta.-Cholan-24-oic acid-3.alpha.-ol]	-3.2	3.2	7.2	-3.8	1.5	47.6	99.2	93.8	98.3	94.7
CCn1cc(C(=O)O)c(=O)c2cc(F)c(N3CCNCC3)nc21	-12.1	28.6	-8.1	41.6	-7.8	41.1	133	87.2	145	87.4
C=C1C2CC[C@@]3(C)[C@H](c4ccoc4)OC(=O)C[C@]13O[C@H]1CC(=O)C(C)(C)[C@H](C(O)C(=O)OC)[C@@]21C (stereo not given in full)	-24.3	4.7	-15.3	1.3	10.7	97.3	114	84	113	106
COc1ccc(C2C(=O)c3ccccc3C2=O)cc1	11.3	-24.6	5.6	-8.9	-1.6	122	105	89.1	99	111

Single entries from the list:
CCn1cc(C(=O)O)c(=O)c2cc(F)c(N3CCNCC3)nc21 | synaptosome phagocytosis (Human fetal astrocytes [2]; 2.78 µM) [%]: 133
C[C@H](CCC(=O)O)[C@H]1CC[C@H]2[C@@H]3CC[C@@H]4C[C@H](O)CC[C@]4(C)[C@H]3CC[C@]12C [Lithocholic acid 5.beta.-Cholan-24-oic acid-3.alpha.-ol] | loss of total cells (Human fetal astrocytes [1]; 2.78 µM) [%]: 3.2
